Measurements reported in patent US20120005765A1, “ANIMAL MODEL FOR PARKINSON'S DISEASE” (Saint Louis University, priority 2010, published 2012).

Assay: Levels of DOPAL, DA and HVA in human substantia nigra and striatum by MHPLC-EC
Details: post-mortem human brain, means±SE of at least six replicates

| SMILES | Brain tissue level, Caudate | Brain tissue level, Putamen | Brain tissue level, Substantia Nigra |
| --- | --- | --- | --- |
| NCCc1ccc(O)c(O)c1 [DA, dopamine] | 191 ± 4.4 pg/mg wet weight | 99 ± 2.5 pg/mg wet weight | 275 ± 4.9 pg/mg wet weight |
| O=CCc1ccc(O)c(O)c1 [DOPAL, 3,4-dihydroxyphenylacetaldehyde] | 149 ± 3.7 pg/mg wet weight | 120 ± 2.9 pg/mg wet weight | 397 ± 4.8 pg/mg wet weight |
| COc1cc(CC(=O)O)ccc1O [HVA, homovanillic acid] | 113 ± 2.7 pg/mg wet weight | 132 ± 3.5 pg/mg wet weight | 321 ± 4.9 pg/mg wet weight |
